Measured values from patent US20240382677A1.

Assays:
[1] = target: recombinant cynomolgus monkey PD-1 expressed with a C-terminal myc-myc-hexahistidine tag (cynomolgus monkey (Macaca fascicularis)); assay: SPR (Biacore), mAb captured, 37 C
[2] = target: recombinant human PD-1 expressed with a C-terminal myc-myc-hexahistidine tag (human); assay: SPR (Biacore), mAb captured, 37 C
[3] = target: recombinant cynomolgus monkey PD-1 expressed with a C-terminal myc-myc-hexahistidine tag (cynomolgus monkey (Macaca fascicularis)); assay: SPR (Biacore), mAb captured, 25 C
[4] = target: recombinant human PD-1 expressed with a C-terminal myc-myc-hexahistidine tag (human); assay: SPR (Biacore), mAb captured, 25 C

Binder	binding [1]	binding [2]	binding [3]	binding [4]
H2aM7795N (antibody, mouse IgG2a, V domains shown) VH: EVQVVESGGGLVEPGRSLRLSCKASGFTFDDYAMHWVRQTPGKALEWVSGINWSGNNIGYADSVKGRFTISKDDAKNSLYLQMNSLRPEDTALYYCTKDISITGTLDAFDVWGQGTMVTVSS VL: DIQMTQSPISVSASVGDRVTITCRASQGISNWLAWYQQKPGIAPKLLIYSASSLQSGVPSRFRGSGSGTDFTLTIGSLQPEDFATYYCQQAHSFPLTFGGGTKVEIK	binds	binds	binds	binds
H2aM7780N (antibody, mouse IgG2a, V domains shown) VH: QVQLVESGGGVVQSGRSLRLSCAASGFTFSSYGMHWVRQAPGKGLEWVAVIWYDGSNIYYSDSVKGRFTISRANSKNTLYLQMNSLRAEDTAVYYCARPGHWNYFFEYWGQGTLVTVSS VL: DIQMTQSPSSLSASVGDRVTITCRASQSINNYLNWYQQKPGKAPKLLIYTASSLQSGVPSRFSGSGSGTDFTLTISSLQPEDFATYYCQQSYSTPPLTFGQGTQLEIK	binds	binds	binds	binds
H1M7789N (antibody, mouse IgG1, V domains shown) VH: EVQLLESGGGLVQPGGSLRLSCSASGFTFSSYTMNWVRQAPGKGLEWVSGISDTGGNTYYTDSVKGRFTVSRDNSKNTLSLQMNSLRAEDTAVYYCAKDQGGSYPYYFHYWGQGSLVTVSS VL: DIQMTQSPSSLSASVGDRVTITCRASQSISSYLIWYQQKPGTAPKFLIYAASSLQSGVPSRFSGCGSGTDFTLTISSLQPEDFATYYCQQSYSTPPITFGQGTRLEIK	binds	binds	binds	binds
H2aM7791N (antibody, mouse IgG2a, V domains shown) VH: QMQLQQWGAGLLKPSETLSLTCVVYGGSLNGYYWSWIRQSPGKGLEWIGEIDHSGSTNYNPSLKNRVTMSVDTSKIQFSLKLTSVTVADTAVYYCAREGLLPFDYWGQGTLVTVSS VL: EIVLTQSPGTLSLSPGERVTLSCRASQSVYSNYLAWYQQNPGQAPRLLIYAASNRATGIPDRFSGSGSGTDFTLTISRLEPEDFAVYYCHQYATSPWTFGQGTKVEIK	binds	binds	binds	binds

Further lines, results first:

binding [1]	binding [2]	binding [3]	binding [4]	Binder
binds	binds	binds	binds	H4H7795N2 (antibody, human IgG4 S228P, kappa, V domains shown) VH: EVQVVESGGGLVEPGRSLRLSCKASGFTFDDYAMHWVRQTPGKALEWVSGISWSGNNIGYADSVKGRFTISKDDAKNSLYLQMNSLRPEDTALYYCTKDISITGTLDAFDVWGQGTMVTVSS VL: DIQMTQSPISVSASVGDRVTITCRASQGISNWLAWYQQKPGIAPKLLIYSASSLQSGVPSRFRGSGSGTDFTLTIGSLQPEDFATYYCQQAHSFPLTFGGGTKVEIKR
–	binds	–	binds	H2aM7796N (antibody, mouse IgG2a, V domains shown) VH: QVQLVESGGGVVQPGRSLRLSCAASGFTFSSYGMHWVRQAPGKGLEWVAIIWSDGDSEYNLDSVKGRFTISRDNSKNTLYLQMNSLRVEDSAVYYCARDRDLEDIWGQGTMVTVSS VL: DIQMTQSPSSLSASVGDRVTITCRASQGIRNDLGWYQQKPGKAPKRLIYAASNLQSGVPSRFSGSGSGTEFTLTISSLQPEDFATYYCLQHNSYPLTFGGGTKVEIK
binds	binds	binds	binds	H2aM7798N (antibody, mouse IgG2a, V domains shown) VH: EVQLLESGGVLVQPGGSLRLSCAASGFTFSNFGMTWVRQAPGKGLEWVSGISGGGRDTYFADSVKGRFTISRDNSKNTLYLQMNSLKGEDTAVYYCVKWGNIYFDYWGQGTLVTVSS VL: DIQMTQSPSSLSASVGDSITITCRASLSINTFLNWYQQKPGKAPNLLIYAASSLHGGVPSRFSGSGSGTDFTLTIRTLQPEDFATYYCQQSSNTPFTFGPGTVVDFR
binds	binds	binds	binds	H4H7798N (antibody, human IgG4 S228P, kappa, V domains shown) VH: EVQLLESGGVLVQPGGSLRLSCAASGFTFSNFGMTWVRQAPGKGLEWVSGISGGGRDTYFADSVKGRFTISRDNSKNTLYLQMNSLKGEDTAVYYCVKWGNIYFDYWGQGTLVTVSS VL: DIQMTQSPSSLSASVGDSITITCRASLSINTFLNWYQQKPGKAPNLLIYAASSLHGGVPSRFSGSGSGTDFTLTIRTLQPEDFATYYCQQSSNTPFTFGPGTVVDFRR

Results are given in words; binding and its absence hold for the method and conditions named. A result given as binding can be weak or reduced; the word gives no strength.
